# Data reported in PMC7126824 (European Journal of Medicinal Chemistry, 2011).
# Tested on: HeLa (human cervix carcinoma) cells
# Assay: Cytostatic activity: inhibition of tumor cell proliferation
# Type: cell-based
# Conditions: read-out: IC50 (50% inhibitory concentration)
# Method in brief: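 Exponentially growing tumour cells were seeded in 96-well plates with a range of test-compound concentrations: CEM lymphocytes at 75,000 cells/well for 3 days, HeLa cervix carcinoma cells at 20,000 cells/well for 4 days. Viable cells were counted with a Coulter counter. The 50% value is the concentration inhibiting tumour cell proliferation by 50%.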
smiles,measurement,value
N.N.[Cl][Pt][Cl] [cisplatinum],IC50,220 nM
